Results published in PMC10710093.
No constants are given. Whether binding was seen depends on the method and setting. Binding seen in cells or lysates may run through a third protein. Some results given as binding are weak or reduced against the parent protein; the word gives no strength.

The chains behind the UniProt entries cited, without tags or fusion partners.
UniProt P17980: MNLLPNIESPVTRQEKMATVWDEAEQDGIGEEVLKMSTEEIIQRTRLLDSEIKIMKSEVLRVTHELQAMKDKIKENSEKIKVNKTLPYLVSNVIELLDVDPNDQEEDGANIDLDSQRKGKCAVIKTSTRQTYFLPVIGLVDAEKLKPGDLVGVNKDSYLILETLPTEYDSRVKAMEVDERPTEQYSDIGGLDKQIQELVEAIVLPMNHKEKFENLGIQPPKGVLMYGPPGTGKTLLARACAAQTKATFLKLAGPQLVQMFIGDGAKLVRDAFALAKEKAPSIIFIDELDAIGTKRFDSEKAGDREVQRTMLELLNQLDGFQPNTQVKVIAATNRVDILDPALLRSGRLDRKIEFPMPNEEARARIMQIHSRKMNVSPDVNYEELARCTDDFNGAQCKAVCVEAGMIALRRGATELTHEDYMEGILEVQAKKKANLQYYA

Target: PSMC3 (TBP1), a 19S proteasome subunit (human (endogenous in NCI-H1975)) (UniProt P17980)
Assay: co-IP; overexpressed FRA1-WT or FRA1-C97A, complex formation with PSMC3 (SI Appendix, Fig. S3E); which protein was precipitated is not told in the main text

binding: binds
B1: FRA1-C97A, ADP-ribosylation deficient mutant, ectopically expressed (protein, UniProt P15407 1-271)
chain: MFRDFGEPGPSSGNGGGYGGPAQPPAAAQAAQQKFHLVPSINTMSGSQELQWMVQPHFLGPSSYPRPLTYPQYSPPQPRPGVIRALGPPPGVRRRPAEQISPEEEERRRVRRERNKLAAAKCRNRRKELTDFLQAETDKLEDEKSGLQREIEELQKQKERLELVLEAHRPICKIPEGAKEGDTGSTSGTSSPPAPCRPVPCISLSPGPVLEPEALHTPTLMTTPSLTPFTPSLVFTYPSTPEPCASAHRKSSSSSGDPSSDPLGSPTLLAL
